Target: the molecule itself
Test: self-assembly in aqueous buffer, fibers seen by SEM

B1: Ultrabithorax (Ubx) splicing isoform Ia, full length, N-terminally His-tagged (other)
chain: MNSYFEQASGFYGHPHQATGMAMGSGGHHDQTASAAAAAYRGFPLSLGMSPYANHHLQRTTQDSPYDASITAACNKIYGDGAGAYKQDCLNIKADAVNGYKDIWNTGGSNGGGGGGGGGGGGGAGGTGGAGNANGGNAANANGQNNPAGGMPVRPSACTPDSRVGGYLDTSGGSPVSHRGGSAGGNVSVSGGNGNAGGVQSGVGVAGAGTAWNANCTISGAAAQTAAASSLHQASNHTFYPWMAIAGKIRSDLTQYGGISTDMGKRYSESLAGSLLPDWLGTNGLRRRGRQTYTRYQTLELEKEFHTNHYLTRRRRIEMAHALCLTERQIKIWFQNRRMKLKKEIQAIKELNEQEKQAQAQKAAAAAAAAAAVQGGHLDQ
notes: Recombinant, from E. coli, pET19b; Self-assembles into fibrils, films and fibers; the number of copies is not defined; also called UbxIa; Ubx 1-380; not shown: N-terminal His-tag appended by the pET19b vector
Question: Does B1 bind?
Answer: Result: binds

Reference: patent publication US20100143436A1 (BONDWELL TECHNOLOGIES, published 2010)
